What all share (assay): relative viability (nuclei count vs DMSO), 5 days (fraction); higher = more cells survive
Compound in experiment [1]: CN[C@@H]1C[C@H]2O[C@@](C)([C@@H]1OC)n1c3ccccc3c3c4c(c5c6ccccc6n2c5c31)C(=O)NC4 [Staurosporine] + CC1(C)CCC(c2ccc(Cl)cc2)=C(CN2CCN(c3ccc(C(=O)NS(=O)(=O)c4ccc(N[C@H](CCN5CCOCC5)CSc5ccccc5)c(S(=O)(=O)C(F)(F)F)c4)cc3)CC2)C1 [Navitoclax] (partner 0.5 µM)
A digest of the protocol: (§1)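 Lung cancer cell lines in 1536-well plates got either a single drug or a fixed anchor-drug dose together with five library-drug doses (not always all listed) in √10 steps, by pin tool, on the day after seeding. Nuclei were counted after 5 days, and relative viability is the treated-to-vehicle ratio of nuclei counts. Values are medians of duplicate plates.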

Compound in experiment [2]: CN[C@@H]1C[C@H]2O[C@@](C)([C@@H]1OC)n1c3ccccc3c3c4c(c5c6ccccc6n2c5c31)C(=O)NC4 [Staurosporine] + CC(=O)c1c(C)c2cnc(Nc3ccc(N4CCNCC4)cn3)nc2n(C2CCCC2)c1=O [Palbociclib] (partner 0.5 µM)
A digest of the protocol:
as §1

Compound in experiment [3]: CN[C@@H]1C[C@H]2O[C@@](C)([C@@H]1OC)n1c3ccccc3c3c4c(c5c6ccccc6n2c5c31)C(=O)NC4 [Staurosporine] + Cc1nc(NC(=O)N2CCC[C@H]2C(N)=O)sc1-c1ccnc(C(C)(C)C(F)(F)F)c1 [Alpelisib] (partner 2 µM)
A digest of the protocol:
as §1

Compound in the next experiment: CN[C@@H]1C[C@H]2O[C@@](C)([C@@H]1OC)n1c3ccccc3c3c4c(c5c6ccccc6n2c5c31)C(=O)NC4 [Staurosporine]
A digest of the protocol: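 Only plates meeting two conditions passed: control CV below 25% and at least one doubling. Lung cancer cell lines, kept overnight at 37 °C in 1536-well plates, were pinned with five library-drug doses (not always all listed) √10 apart on vehicle-anchored plates and grown 5 days without medium change. A one-step fix, permeabilisation and Hoechst stain preceded 4× imaging and MetaXpress nuclear counting. Viability equals treated-well nuclei divided by vehicle-well nuclei, as the median over plates.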

Compound in experiment [4]: CN[C@@H]1C[C@H]2O[C@@](C)([C@@H]1OC)n1c3ccccc3c3c4c(c5c6ccccc6n2c5c31)C(=O)NC4 [Staurosporine] + C[C@@H](Oc1cc(-c2cnn(C3CCNCC3)c2)cnc1N)c1c(Cl)ccc(F)c1Cl [Crizotinib] (partner 1 µM)
A digest of the protocol:
as §1

Compound in experiment [5]: CN[C@@H]1C[C@H]2O[C@@](C)([C@@H]1OC)n1c3ccccc3c3c4c(c5c6ccccc6n2c5c31)C(=O)NC4 [Staurosporine] + CS(=O)(=O)N1CCN(Cc2cc3nc(-c4cccc5[nH]ncc45)nc(N4CCOCC4)c3s2)CC1 [Pictilisib] (partner 1 µM)
A digest of the protocol: as §1

Compound in experiment [6]: CN[C@@H]1C[C@H]2O[C@@](C)([C@@H]1OC)n1c3ccccc3c3c4c(c5c6ccccc6n2c5c31)C(=O)NC4 [Staurosporine] + CC(C)C[C@H](NC(=O)[C@H](Cc1ccccc1)NC(=O)c1cnccn1)B(O)O [Bortezomib] (partner 0.002 µM)
A digest of the protocol:
as §1

Compound in the experiment “Staurosporine + AZD7762”: CN[C@@H]1C[C@H]2O[C@@](C)([C@@H]1OC)n1c3ccccc3c3c4c(c5c6ccccc6n2c5c31)C(=O)NC4 [Staurosporine] + NC(=O)Nc1cc(-c2cccc(F)c2)sc1C(=O)N[C@H]1CCCNC1 [AZD7762] (partner 0.2 µM)
Summed up: as §1

Compound in experiment [7]: CN[C@@H]1C[C@H]2O[C@@](C)([C@@H]1OC)n1c3ccccc3c3c4c(c5c6ccccc6n2c5c31)C(=O)NC4 [Staurosporine] + O=C(CCCCCCC(=O)Nc1ccccc1)NO [Vorinostat] (partner 1 µM)
A digest of the protocol:
as §1

Compound in experiment [8]: CN[C@@H]1C[C@H]2O[C@@](C)([C@@H]1OC)n1c3ccccc3c3c4c(c5c6ccccc6n2c5c31)C(=O)NC4 [Staurosporine] + CC(=O)Nc1cccc(-n2c(=O)n(C3CC3)c(=O)c3c(Nc4ccc(I)cc4F)n(C)c(=O)c(C)c32)c1 [Trametinib] (partner 0.02 µM)
Summed up: as §1

Compound in experiment [9]: CN[C@@H]1C[C@H]2O[C@@](C)([C@@H]1OC)n1c3ccccc3c3c4c(c5c6ccccc6n2c5c31)C(=O)NC4 [Staurosporine] + COc1cc2c(Oc3ccc(NC(=O)C4(C(=O)Nc5ccc(F)cc5)CC4)cc3F)ccnc2cc1OCCCN1CCOCC1 [Foretinib] (partner 0.25 µM)
Summed up:
as §1

Compound in experiment [10]: CN[C@@H]1C[C@H]2O[C@@](C)([C@@H]1OC)n1c3ccccc3c3c4c(c5c6ccccc6n2c5c31)C(=O)NC4 [Staurosporine] + C[C@]1(O)C[C@@H](c2nc(-c3ccc4ccc(-c5ccccc5)nc4c3)c3c(N)nccn32)C1 [Linsitinib] (partner 1 µM)
The conditions noted are these: first compound 0.005 µM. A digest of the protocol: as §1

Compound in experiment [11]: CN[C@@H]1C[C@H]2O[C@@](C)([C@@H]1OC)n1c3ccccc3c3c4c(c5c6ccccc6n2c5c31)C(=O)NC4 [Staurosporine] + N=C(N)NC(=N)NCCc1ccccc1 [Phenformin] (partner 250 µM)
A digest of the protocol: as §1

Compound in experiment [12]: CN[C@@H]1C[C@H]2O[C@@](C)([C@@H]1OC)n1c3ccccc3c3c4c(c5c6ccccc6n2c5c31)C(=O)NC4 [Staurosporine] + CS(=O)(=O)CCNCc1ccc(-c2ccc3ncnc(Nc4ccc(OCc5cccc(F)c5)c(Cl)c4)c3c2)o1 [Lapatinib] (partner 2 µM)
The note with it: first compound 0.05 µM. A digest of the protocol:
as §1

Compound in the experiment “Staurosporine + Olaparib”: CN[C@@H]1C[C@H]2O[C@@](C)([C@@H]1OC)n1c3ccccc3c3c4c(c5c6ccccc6n2c5c31)C(=O)NC4 [Staurosporine] + O=C(c1cc(Cc2n[nH]c(=O)c3ccccc23)ccc1F)N1CCN(C(=O)C2CC2)CC1 [Olaparib] (partner 8 µM)
The note with it: first compound 0.005 µM. Summed up: as §1

Compound in the experiment “Staurosporine + OSI-027”: CN[C@@H]1C[C@H]2O[C@@](C)([C@@H]1OC)n1c3ccccc3c3c4c(c5c6ccccc6n2c5c31)C(=O)NC4 [Staurosporine] + COc1cccc2cc(-c3nc([C@H]4CC[C@H](C(=O)O)CC4)n4ncnc(N)c34)[nH]c12 [OSI-027] (partner 0.5 µM)
A digest of the protocol: as §1

Compound in experiment [13]: CN[C@@H]1C[C@H]2O[C@@](C)([C@@H]1OC)n1c3ccccc3c3c4c(c5c6ccccc6n2c5c31)C(=O)NC4 [Staurosporine] + Cc1nc(Nc2ncc(C(=O)Nc3c(C)cccc3Cl)s2)cc(N2CCN(CCO)CC2)n1 [Dasatinib] (partner 0.075 µM)
A digest of the protocol: as §1

Compound in experiment [14]: CN[C@@H]1C[C@H]2O[C@@](C)([C@@H]1OC)n1c3ccccc3c3c4c(c5c6ccccc6n2c5c31)C(=O)NC4 [Staurosporine] + Cc1cc(Nc2cc(N3CCN(C)CC3)nc(Sc3ccc(NC(=O)C4CC4)cc3)n2)n[nH]1 [Tozasertib] (partner 0.1 µM)
The note with it: first compound 0.5 µM. A digest of the protocol: as §1

As to A-427, the relative viability in experiment [1] (first compound 0.5 µM) was 0.122.
For the cell line ABC-1, in experiment [2] (first compound 0.005 µM), the relative viability was 0.454.
For BEN, the relative viability in experiment [3] (first compound 0.01581 µM) turned out to be 1.05.
With CAL-12T, in the experiment with Staurosporine (0.05 µM), the relative viability was determined as 0.208.
With COR-L 105, the relative viability in [4] (first compound 0.05 µM) worked out at 0.208.
As to ChaGo-K-1, in experiment [5] (first compound 0.5 µM), the relative viability turned out to be 0.241.
For EKVX, the relative viability in [6] (first compound 0.1581 µM) was 0.208; in the experiment with Staurosporine + AZD7762 (first compound 0.5 µM) it was 0.114.
Turning to EMC-BAC-2, the relative viability in experiment [7] (first compound 0.01581 µM) was 0.109; in experiment [8] (first compound 0.5 µM), 0.198.
For HARA, the values for the relative viability (in experiment [4] (first compound 0.5 µM); in experiment [1] (first compound 0.005 µM); in the experiment with Staurosporine + AZD7762 (first compound 0.1581 µM)) were 0.126, 1.16 and 0.219, respectively.
As to HCC-44, the values for the relative viability in experiment [8] (first compound 0.1581 µM) and in experiment [2] (first compound 0.005 µM) were 0.332 and 1.02, respectively.
On to HCC-78, for which, in experiment [9] (first compound 0.5 µM), the relative viability was found to be 0.383.
Turning to HCC-827, the relative viability in [3] (first compound 0.1581 µM) amounted to 0.642; in experiment [1] (first compound 0.01581 µM) it was 0.871.
HOP-62: the relative viability with Staurosporine + AZD7762 (first compound 0.05 µM) was found to be 0.126.
Consider IA-LM, for which the relative viability in experiment [10] amounted to 0.494.
LK-2: the relative viability in experiment [11] (first compound 0.05 µM) worked out at 0.219; in [12], 0.981; in the experiment with Staurosporine + Olaparib it was 0.989.
Regarding NCI-H23, the relative viability in experiment [5] (first compound 0.05 µM) amounted to 0.197.
Consider NCI-H322M, for which the relative viability in experiment [11] (first compound 0.005 µM) was 0.704; in experiment [11] (first compound 0.05 µM), 0.405.
In the case of NCI-H358, the relative viability in experiment [7] (first compound 0.005 µM) came to 0.432.
The same measure, in the same setting: for NCI-H460 the value was 0.454.
Consider NCI-H522, for which, in [2] (first compound 0.05 µM), the relative viability is 0.891.
NCI-H596: the relative viability with Staurosporine (0.005 µM) worked out at 1.17.
With NCI-H647, the relative viability in experiment [2] (first compound 0.01581 µM) turned out to be 0.125.
Turning to NCI-H838, the relative viability (in [7] (first compound 0.5 µM); in the experiment with Staurosporine + OSI-027 (first compound 0.5 µM)) was 0.126 each time.
Turning to NCI-H1437, the relative viability in experiment [10] was determined as 0.734; in [4] (first compound 0.05 µM) it was 0.677.
For NCI-H1563, the relative viability with Staurosporine (0.5 µM) came to 0.486.
In the case of NCI-H1734, the relative viability in experiment [7] (first compound 0.05 µM) amounted to 0.219; in experiment [13] (first compound 0.01581 µM), 0.175.
Take NCI-H1792: the relative viability in experiment [4] (first compound 0.005 µM) was 1.11; in [1] (first compound 0.1581 µM) it was 0.129.
As to NCI-H1793, the relative viability in [5] (first compound 0.5 µM) came to 0.197.
Regarding NCI-H1915, the relative viability in experiment [9] (first compound 0.005 µM) was 1.12; in experiment [5] (first compound 0.1581 µM), 0.109.
On to NCI-H1944, for which the relative viability in experiment [9] (first compound 0.01581 µM) amounted to 0.749.
In the case of NCI-H1975, the results for the relative viability (with Staurosporine + OSI-027 (first compound 0.1581 µM); in experiment [6] (first compound 0.5 µM)) were 0.112 and 0.109, respectively.
With NCI-H2009, in the experiment with Staurosporine + OSI-027 (first compound 0.01581 µM), the relative viability came out at 0.175.
As for NCI-H2023, in experiment [9] (first compound 0.01581 µM), the relative viability was 0.383.
Turning to NCI-H2085, the relative viability turned out to be 0.552 in experiment [11] (first compound 0.005 µM) and 0.332 in [14].
As to NCI-H2126, the relative viability in experiment [7] (first compound 0.5 µM) worked out at 0.219.
For the cell line NCI-H2170, the relative viability in [8] (first compound 0.005 µM) stood at 1.04.
On to NCI-H2342, for which, in experiment [11] (first compound 0.01581 µM), the relative viability is 0.405.
With NCI-H2347, the relative viability in experiment [3] (first compound 0.5 µM) came out at 0.354.
On to NCI-H2405, for which the relative viability in [9] (first compound 0.05 µM) turned out to be 0.125; in experiment [2] (first compound 0.1581 µM), 0.129; with Staurosporine + AZD7762 (first compound 0.1581 µM), 0.109; with Staurosporine (0.005 µM), 0.421.
Turning to NCI-H3122, the relative viability with Staurosporine + AZD7762 (first compound 0.005 µM) was 1.07.
For the cell line PC-3 [JPC-3], the relative viability in [11] (first compound 0.005 µM) amounted to 0.494; in experiment [4] (first compound 0.005 µM), 1.11; in experiment [13] (first compound 0.005 µM) it was 0.954.
On to RERF-LC-KJ, for which the relative viability in [8] (first compound 0.05 µM) was 0.421.
As to SK-LU-1, in experiment [13] (first compound 0.01581 µM), the relative viability amounted to 0.112.

Source of the values: the supplement of paper PMC10307832.
